The experiment has as its system primary human hepatic stellate cells (donor 1). In words: percent Bodipy-positive cells; higher = more lipid droplet accumulation. The settings on record: 48 h.
Setting [1] is: library stock concentration: 1 mM.
Setting [2] is: library stock concentration: 3.33 mM.
The mark [3] stands for this setting: library stock concentration: 10 mM.
Setting [4] is: library stock concentration: 80 uM.
Where [5] appears, read: library stock concentration: 400 uM.
The mark [6] stands for this setting: library stock concentration: 2 mM.

SMILES strings stand for the structures. Values joined by “and” are separate entries in the source; they are usually repeats but may differ in a detail not shown here. Equal entries are not always repeated. Structures can show the parent of a compound that is named as a salt. ± gives the standard deviation of the averaged measurements. The list shows a part of the results. Plates or batches differ in their baseline, so values are only roughly comparable.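 Assay uses culture-activated primary human stellate myofibroblasts; lipid droplet recovery indicates inactivation. Measured: proportion of Hoechst-counted cells over a plate-specific Bodipy cutoff, duplicate wells, DMSO and nortriptyline as per-plate negative and positive controls. A hit scores, control-normalized, above the plate's top-tenth-percentile nortriptyline wells or ranks among its three best wells. Final well concentrations not reported.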

Turning to `C#C[C@]1(O)CC[C@H]2[C@@H]3CCC4=CC(=O)CC[C@@H]4[C@H]3CC[C@@]21CC` [Levonorgestrel], the “percent Bodipy-positive cells” value is, setting by setting: under setting [1], 7.34 ± 1.7%; under setting [2], 5.67 ± 2.8%; (library stock concentration: 6.4 mM) 14 ± 0.64%; under setting [3], 74.5 ± 7.1%. Consider `O=S(c1ccccc1)c1ccc2nnnn2n1` (centres undefined), for which the “percent Bodipy-positive cells” value under setting [3] amounted to 81.6 ± 3.6%. On to `CC(CN(C)C)CN1c2ccccc2Sc2ccccc21` (centres undefined) [Trimeprazine tartrate], for which the “percent Bodipy-positive cells” value stood at 55.5 ± 11%. The “percent Bodipy-positive cells” value under setting [3] was determined as 83.3 ± 3.2%. On to `CC1(C)[C@@H](OC(=O)CCC(=O)O)CC[C@]2(C)[C@H]3C(=O)C=C4[C@@H]5C[C@@](C)(C(=O)O)CC[C@]5(C)CC[C@@]4(C)[C@]3(C)CC[C@@H]12` [Carbenoxolone sodium], for which, under setting [3], the “percent Bodipy-positive cells” value was determined as 19.6 ± 3.4%. Take `CC1(C)[C@@H](OC(=O)CCC(=O)O)CC[C@]2(C)[C@H]3C(=O)C=C4[C@@H]5C[C@@](C)(C(=O)O)CC[C@]5(C)CC[C@@]4(C)[C@]3(C)CC[C@@H]12` [Carbenoxolone disodium salt]: the “percent Bodipy-positive cells” value was determined as 8.11 ± 2.4%. Turning to `CCN(CC)CCCC(C)Nc1c2ccc(Cl)cc2nc2ccc(OC)cc12` (centres undefined) [Quinacrine 2HCl dihydrate], the “percent Bodipy-positive cells” value (library stock concentration: 5 mM) turned out to be 98.1 ± 1.8%. With `Cn1cc(-c2ccc3c(c2)CCN3C(=O)Cc2cccc(C(F)(F)F)c2)c2c(N)ncnc21`, the “percent Bodipy-positive cells” value by setting is: under setting [2], 38.9 ± 2.1%; under setting [3], 80.6 ± 2.2%. On to `Oc1cccc(-c2nc(N3CCOCC3)c3oc4ncccc4c3n2)c1`, for which the “percent Bodipy-positive cells” value by setting is: under setting [4], 4.4 ± 0.11%; under setting [5], 6.1% and 14.6%; under setting [1], 8.93 ± 3%; under setting [6], 17% and 17.9%; under setting [2], 34.2% and 21.5%; under setting [3], 79.3% and 58.5%. Take `C#CCn1c(=O)c2c(ncn2C)n(C)c1=O` [3,7-Dimethyl-1-propargylxanthine]: the “percent Bodipy-positive cells” value under setting [3] was determined as 39.7 ± 4.6%. Take `Cc1cc(SCc2sc(-c3ccc(C(F)(F)F)cc3)nc2C)ccc1OCC(=O)O`: the “percent Bodipy-positive cells” value is, setting by setting: under setting [4], 12.4 ± 0.66%; under setting [5], 9.3 ± 1.6%; under setting [6], 9.59 ± 8.4%; under setting [3], 23.3 ± 5%.

For `CC(=O)OCC(=O)[C@H]1CC[C@H]2[C@@H]3CCC4=CC(=O)CC[C@]4(C)[C@H]3CC[C@]12C` [Desoxycorticosterone acetate], the “percent Bodipy-positive cells” value is, setting by setting: (library stock concentration: 5.4 mM) 6.45 ± 0.39%; under setting [3], 37 ± 1.7%. `CCCOc1ccc(C(=O)OCCN(CC)CC)cc1N` [Proparacaine hydrochloride]: the “percent Bodipy-positive cells” value is 7.9 ± 1.1%. The “percent Bodipy-positive cells” value (library stock concentration: 6 mM) is 4.66 ± 2%. In the case of `CCCOc1ccc(C(=O)OCCN(CC)CC)cc1N` [Proxymetacaine], under setting [3], the “percent Bodipy-positive cells” value is 45 ± 1.6%. For `CCCOc1ccc(C(=O)OCCN(CC)CC)cc1N` [Proparacaine HCl], the “percent Bodipy-positive cells” value by setting is: under setting [2], 7.6 ± 0.51%; under setting [3], 15.8 ± 6.4%.

For the molecule `COC(=O)Nc1ccc2[nH]cc(CCNC(C)=O)c2c1`, the “percent Bodipy-positive cells” value under setting [3] was 10.1 ± 1.1%. On to `C=CCNC1=C2C[C@@H](C)C[C@H](OC)[C@H](O)[C@@H](C)C=C(C)[C@H](OC(N)=O)[C@@H](OC)C=CC=C(C)C(=O)NC(=CC1=O)C2=O` [17-AAG (Tanespimycin)], for which the “percent Bodipy-positive cells” value under setting [3] is 67.6 ± 0.98%. For the molecule `CCCCCCCCCCCCCCCC(=O)C1=C(O)[C@@H](CO)OC1=O`, where the note is “library stock concentration: 13.6 mM”, the “percent Bodipy-positive cells” value is 15.5 ± 2.8%. For `CNCCC[C@]12CC[C@H](c3ccccc31)c1ccccc12.Cl` [Maprotiline hydrochloride], the “percent Bodipy-positive cells” value came to 91.2 ± 3.8%.

On to `COc1cc2ncn(-c3cc(OCc4ccccc4C(F)(F)F)c(C(N)=O)s3)c2cc1OC`, for which, under setting [3], the “percent Bodipy-positive cells” value amounted to 64.5 ± 2.2%. `CCCCC/C=C\C/C=C\C/C=C\C/C=C\CCCC(=O)O` [Arachidonic Acid]: the “percent Bodipy-positive cells” value under setting [1] came to 31.6 ± 25%. The same measure, in the same setting: the result for `CCCCC/C=C\C/C=C\C/C=C\C/C=C\CCCC(=O)O` [Arachidonic acid (20:4, n-6)] reads 12.3 ± 3.2%. On to `Cc1cc(C)c(S(=O)(=O)Nc2cccc(C(F)(F)F)c2)c(C)c1`, for which the “percent Bodipy-positive cells” value under setting [3] was 26.7 ± 14%.

`CN1C2CCC1CC(OC(=O)C(O)c1ccccc1)C2` (centres undefined) [Homatropine Bromide]: the “percent Bodipy-positive cells” value under setting [2] came to 12 ± 1.5% and the “percent Bodipy-positive cells” value under setting [3] was 31.1 ± 12%.

Consider `CN1C2CCC1CC(OC(=O)C(O)c1ccccc1)C2` (centres undefined) [Homatropine bromide], for which the “percent Bodipy-positive cells” value under setting [3] is 16.3 ± 5.4%. Same read-out and setting: the result for `CC(N)(Cc1ccc(O)c(O)c1)C(=O)O` (racemic) [(?)-3-(3,4-dihydroxyphenyl)-2-methyl-DL-alanine] reads 26.1 ± 3.5%; that for `CN(C)CCC(c1ccc(Br)cc1)c1ccccn1` (single isomer, unassigned; (+)) [(+)-Brompheniramine maleate], 73.7 ± 9.7%.

`CC[C@@H](CO)NCCN[C@@H](CC)CO` [Ethambutol]: the “percent Bodipy-positive cells” value under setting [3] came to 33.1 ± 7.9%. Regarding `CC[C@@H](CO)NCCN[C@@H](CC)CO` [Ethambutol HCl], the “percent Bodipy-positive cells” value under setting [2] stood at 7.51 ± 1.4% and the “percent Bodipy-positive cells” value under setting [3] was determined as 28 ± 1.2%. With `CC[C@@H](CO)NCCN[C@@H](CC)CO` [Ethambutol hydrochloride], the “percent Bodipy-positive cells” value (library stock concentration: 7.2 mM) came out at 4.87 ± 0.84% and the “percent Bodipy-positive cells” value under setting [3] was 8.38 ± 0.38%.

On to `CC[C@@H](CO)NCCN[C@@H](CC)CO` [Ethambutol dihydrochloride], for which the “percent Bodipy-positive cells” value came out at 22.8 ± 0.7%. As for `C=CS(=O)(=O)NC1CCN(C(=O)CNc2cc(I)c(Cl)cc2OC)CC1` [K-Ras(G12C) inhibitor 9], the “percent Bodipy-positive cells” value was 65 ± 5.3% under setting [2] and 93.4 ± 3.3% under setting [3].

In the case of `CCN(CC)CCCCNc1ncc2cc(-c3cc(OC)cc(OC)c3)c(NC(=O)NC(C)(C)C)nc2n1`, the “percent Bodipy-positive cells” value is, setting by setting: under setting [4], 12.8 ± 0.73%; under setting [5], 17.3 ± 3.5%. For `O=C(O)CCC/C=C\C[C@@H]1[C@@H](/C=C/C(F)(F)COc2ccccc2)[C@H](O)C[C@@H]1O` [Tafluprost (free acid)], the “percent Bodipy-positive cells” value under setting [1] turned out to be 7.78 ± 0.42%. For the molecule `CCN(CC)Cc1ccc2cc(COC(=O)Nc3ccc(C(=O)NO)cc3)ccc2c1.Cl.O` [Givinostat (ITF2357)], the “percent Bodipy-positive cells” value by setting is: under setting [2], 86.74 ± 0.62%; under setting [3], 96.1 ± 2.3%.

For `C[C@]1(Cn2ccnn2)[C@H](C(=O)O)N2C(=O)C[C@H]2S1(=O)=O`, the “percent Bodipy-positive cells” value under setting [3] is 38.1 ± 2.2%. With `CC(=O)OCC(=O)[C@@]1(OC(C)=O)[C@@H](C)C[C@H]2[C@@H]3C[C@H](F)C4=CC(=O)C=C[C@]4(C)[C@@]3(F)[C@@H](O)C[C@@]21C` [Diflorasone Diacetate], the “percent Bodipy-positive cells” value came out at 25.6 ± 9.9%. In the case of `CC(=O)OCC(=O)[C@@]1(OC(C)=O)[C@@H](C)C[C@H]2[C@@H]3C[C@H](F)C4=CC(=O)C=C[C@]4(C)[C@@]3(F)[C@@H](O)C[C@@]21C` [Diflorasone diacetate], the “percent Bodipy-positive cells” value (library stock concentration: 4 mM) was determined as 1.86 ± 1.6%.

The values are drawn from the supplement of paper PMC9135407.
